From PubChem BioAssay AID445 (National Center for Advancing Translational Sciences (NCATS), 2006) come the findings set out here.

The list shows a part of the results. Shown are side measurements of this screen, not its main read-out; they come without a call. Compounds called inactive in the main read-out are mostly missing here. Words in brackets tell the shape of the fitted curve; partial curves, single points and poor fits give uncertain potencies.

This experiment can be described thus: IkB Signaling. The note with it: ABC-DLBCL IkBa-CBG/CBR dual luciferase ratio (green luciferase fused to IkBa over red control in OCI-Ly3 lymphoma cells), 4 h; measured here: control luc red channel unless noted. The method, boiled down:
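Luminescence ratio of IκBα-fused green versus native red beetle luciferase in OCI-Ly3 cells, 4 h post-doxycycline with compound; red signal alone, scaled from basal (0%) to zero light (-100%), flagged nonspecific or cytotoxic effects.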
In general, AC50 refers to the concentration giving half of the maximal activity seen. Take `Cc1c(NC(=O)c2noc3c2CCc2ccccc2-3)c(=O)n(-c2ccccc2)n1C`: the half-maximal activity concentration (AC50) was 12.6 µM [falling, partial curve]. Consider `CCOc1ccc(CCNC(=O)c2cccc(-n3c(C)nc4cccnc43)c2C)cc1`, for which the AC50 was 15.8 µM [falling, partial curve]. Turning to `C=CCNc1nc(NCc2ccco2)nc(OCC)n1`, the half-maximal activity concentration (AC50) is 3.16 µM [rising, single point] [measured here: IkB-luc green channel]. With `CCOC(=O)C1CCCN(C(=O)c2cc3nc(-c4cccc(OC)c4)cc(C(F)(F)F)n3n2)C1` (configuration not stated) the figure was 2 µM [falling, full curve, poor fit]. Regarding `CCc1cccc(C)c1NC(=O)C1CCN(S(=O)(=O)c2cccc3nonc23)CC1`, the AC50 was 1 µM [rising, full curve, poor fit].

In the case of `CSc1ccccc1NC(=O)c1cc(-c2cccs2)on1`, the AC50 is 3.16 µM [falling, partial curve]. As for `O=C1CC(c2ccc(Cl)cc2)c2cc3c(cc2N1)OCCO3` (configuration not stated), the figure is 39.8 µM [falling, single point]; as for `CCCCCn1c(=O)[nH]c2cc(C(=O)N3CCN(c4cccc(OC)c4)CC3)ccc2c1=O`, 3.98 µM [falling, full curve]. Consider `COc1ccc(-c2nc3c(c(SCC(=O)Nc4ccccc4OC)n2)Cc2cccc(C)c2O3)cc1`, for which the AC50 was 15.8 µM [falling, partial curve]. As for `CCCCC(=O)Nc1c(C(=O)N2CCN(c3ccccc3)CC2)oc2ccccc12`, the figure is 20 µM [falling, partial curve]; as for `CSc1nnc(-c2ccccc2)c(=O)[nH]1`, 31.6 µM [falling, single point]; as for `COc1ccc(Cc2nn3c(-c4ccccc4OC)nnc3s2)cc1`, 12.6 µM [falling, partial curve]. On to `Cc1ccc2nc(-c3ccc4c(c3)OCCO4)cc(C(=O)O)c2c1`, for which the concentration at half-maximal activity (AC50) is 15.8 µM [falling, partial curve]. `COc1cccc(C(=O)Nc2cccc(C(=O)OCc3cc(=O)n4c5c(sc4n3)CCCC5)c2)c1`: the AC50 is 3.98 µM [falling, partial curve]. With `CCc1nn(CCCC(=O)NCc2cc(Br)ccc2OC)c(=O)c2cc3occc3n12` the figure was 25.1 µM [falling, single point]. On to `Cc1ccc(Cn2c(SCC(C)C)nc3c2c(=O)n(C)c(=O)n3C)cc1`, for which the AC50 was 25.1 µM [falling, partial curve]. As for `Cc1ccc(-c2nnc(Nc3ccc(O)cc3)c3ccccc23)cc1S(=O)(=O)N1CCCCC1`, the figure is 1 µM [falling, full curve].
